From patent US20240180895A1, “USE OF KAPPA OPIOID RECEPTOR AGONISTS TO TREAT CARDIOVASCULAR DISEASE” (Board of Supervisors of Louisiana State University and …, priority 2021, published 2024) come the findings set out here.

In this test the test system is Sprague-Dawley rats. The test can be described thus: Prevention of diuretic resistance to twice daily furosemide by nalfurafine, 5-hour urine (FIG. 15). Type of test: in vivo, rat. As to the method: Male Sprague-Dawley rats were placed in individual metabolic cages in a room with 12-hour automatic light on/off control and allowed tap water and rodent chow ad libitum. Over the next two (2) days (control period), rats were administered vehicle (5% NaOH; 1 M PBS, IP) in the morning (9:00 am) and afternoon (2:00 pm) of each day, with urine collected for 5-hours starting immediately after the first injection. […] This was repeated for 4 consecutive days (experimental period).

Take `NS(=O)(=O)c1cc(C(=O)O)c(NCc2ccco2)cc1Cl` [furosemide]: the “Excretion of sodium and potassium, furosemide alone vs combination” value is “excreted significantly more sodium and potassium than the combination group on day 1”.
